Data taken from article PMC12999284.
These are yes or no findings as the source states them, for the method shown. Binding seen in cells or lysates may run through a third protein. Binding can be weak; no strength is given.

Chains of the proteins cited; added tags and fusions are not shown. Lines headed by an entry give the natural chain unless they say otherwise; changes in a name come on top.
UniProt P24347: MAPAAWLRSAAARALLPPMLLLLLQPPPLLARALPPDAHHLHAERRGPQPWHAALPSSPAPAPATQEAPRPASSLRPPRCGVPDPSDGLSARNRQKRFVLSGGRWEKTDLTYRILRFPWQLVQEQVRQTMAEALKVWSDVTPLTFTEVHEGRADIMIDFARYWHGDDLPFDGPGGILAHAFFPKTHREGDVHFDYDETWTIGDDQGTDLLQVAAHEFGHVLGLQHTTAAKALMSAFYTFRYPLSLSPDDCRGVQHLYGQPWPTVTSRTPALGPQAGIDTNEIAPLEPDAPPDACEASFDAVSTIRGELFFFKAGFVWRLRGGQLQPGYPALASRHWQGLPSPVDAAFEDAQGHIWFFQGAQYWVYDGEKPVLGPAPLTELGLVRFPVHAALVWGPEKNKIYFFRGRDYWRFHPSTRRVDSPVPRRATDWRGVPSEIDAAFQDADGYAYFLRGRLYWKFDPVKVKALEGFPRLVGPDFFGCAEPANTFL

Molecular target: T1, RAB24 (UniProt Q969Q5)
T1 sequence: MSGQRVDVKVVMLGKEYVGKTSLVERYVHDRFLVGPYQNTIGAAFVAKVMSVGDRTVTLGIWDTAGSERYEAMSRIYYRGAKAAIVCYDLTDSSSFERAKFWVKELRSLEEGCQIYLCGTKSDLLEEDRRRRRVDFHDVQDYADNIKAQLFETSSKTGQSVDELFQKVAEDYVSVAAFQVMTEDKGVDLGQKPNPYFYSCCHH
Experiment: co-IP; a series of co-immunoprecipitation assays; cells, antibodies and which protein was precipitated are not told in the text shown

For MMP11 (from UniProt P24347), the binding was “binds”.
